Assay results taken from patent US5821061A, “Method and reagent for detecting a ligand in a sample” (Toyo Boseki Kabushiki Kaisha, priority 1995, dated 1998).
At least one compound was matched to its structure with a doubt left.

Tests used:
Format in all cases: biochemical
[1] = system: alkaline phosphatase of Bacillus badius TE3592; assay: Substrate specificity of the alkaline phosphatase of Bacillus badius TE3592; conditions: enzyme of Bacillus badius TE3592; for Relative Activity: substrate specificity, p-nitrophenyl phosphate = 100
[2] = system: alkaline phosphatase of Bacillus badius TE3593; assay: Substrate specificity of the alkaline phosphatase of Bacillus badius TE3593; conditions: enzyme of Bacillus badius TE3593; for Relative Activity: substrate specificity, p-nitrophenyl phosphate = 100
[3] = system: alkaline phosphatase of Bacillus badius TE3597; assay: Substrate specificity of the alkaline phosphatase of Bacillus badius TE3597; conditions: enzyme of Bacillus badius TE3597; for Relative Activity: substrate specificity, p-nitrophenyl phosphate = 100

Structure (SMILES) | Substrate specificity (acts on) [1] | Relative Activity [1] | Substrate specificity (acts on) [2] | Relative Activity [2] | Substrate specificity (acts on) [3] | Relative Activity [3]
O=P(O)(O)Oc1ccccc1 [Phenyl phosphate] | acts on | 140 | acts on | 180 | acts on | 167
C[N+](C)(C)CCOP(=O)(O)O [Phosphoryl choline] | – | 2.96 | – | 3.81 | – | 6.50
